Measurements taken from patent US20120231482A1, “METHOD, KIT OR DIAGNOSTIC FOR THE DETECTION OF REAGENTS WHICH INDUCE ALTERED CONTRACTILITY” (THE JOHNS HOPKINS UNIVERSITY, priority 2009, published 2012).
These are yes or no findings as the source states them, for the method shown. Some results given as binding are weak or reduced against the parent protein; the word gives no strength.

Sequences of proteins named here, by UniProt entry; tags and fusion partners are left off. Residues count along the entry.
UniProt P02563: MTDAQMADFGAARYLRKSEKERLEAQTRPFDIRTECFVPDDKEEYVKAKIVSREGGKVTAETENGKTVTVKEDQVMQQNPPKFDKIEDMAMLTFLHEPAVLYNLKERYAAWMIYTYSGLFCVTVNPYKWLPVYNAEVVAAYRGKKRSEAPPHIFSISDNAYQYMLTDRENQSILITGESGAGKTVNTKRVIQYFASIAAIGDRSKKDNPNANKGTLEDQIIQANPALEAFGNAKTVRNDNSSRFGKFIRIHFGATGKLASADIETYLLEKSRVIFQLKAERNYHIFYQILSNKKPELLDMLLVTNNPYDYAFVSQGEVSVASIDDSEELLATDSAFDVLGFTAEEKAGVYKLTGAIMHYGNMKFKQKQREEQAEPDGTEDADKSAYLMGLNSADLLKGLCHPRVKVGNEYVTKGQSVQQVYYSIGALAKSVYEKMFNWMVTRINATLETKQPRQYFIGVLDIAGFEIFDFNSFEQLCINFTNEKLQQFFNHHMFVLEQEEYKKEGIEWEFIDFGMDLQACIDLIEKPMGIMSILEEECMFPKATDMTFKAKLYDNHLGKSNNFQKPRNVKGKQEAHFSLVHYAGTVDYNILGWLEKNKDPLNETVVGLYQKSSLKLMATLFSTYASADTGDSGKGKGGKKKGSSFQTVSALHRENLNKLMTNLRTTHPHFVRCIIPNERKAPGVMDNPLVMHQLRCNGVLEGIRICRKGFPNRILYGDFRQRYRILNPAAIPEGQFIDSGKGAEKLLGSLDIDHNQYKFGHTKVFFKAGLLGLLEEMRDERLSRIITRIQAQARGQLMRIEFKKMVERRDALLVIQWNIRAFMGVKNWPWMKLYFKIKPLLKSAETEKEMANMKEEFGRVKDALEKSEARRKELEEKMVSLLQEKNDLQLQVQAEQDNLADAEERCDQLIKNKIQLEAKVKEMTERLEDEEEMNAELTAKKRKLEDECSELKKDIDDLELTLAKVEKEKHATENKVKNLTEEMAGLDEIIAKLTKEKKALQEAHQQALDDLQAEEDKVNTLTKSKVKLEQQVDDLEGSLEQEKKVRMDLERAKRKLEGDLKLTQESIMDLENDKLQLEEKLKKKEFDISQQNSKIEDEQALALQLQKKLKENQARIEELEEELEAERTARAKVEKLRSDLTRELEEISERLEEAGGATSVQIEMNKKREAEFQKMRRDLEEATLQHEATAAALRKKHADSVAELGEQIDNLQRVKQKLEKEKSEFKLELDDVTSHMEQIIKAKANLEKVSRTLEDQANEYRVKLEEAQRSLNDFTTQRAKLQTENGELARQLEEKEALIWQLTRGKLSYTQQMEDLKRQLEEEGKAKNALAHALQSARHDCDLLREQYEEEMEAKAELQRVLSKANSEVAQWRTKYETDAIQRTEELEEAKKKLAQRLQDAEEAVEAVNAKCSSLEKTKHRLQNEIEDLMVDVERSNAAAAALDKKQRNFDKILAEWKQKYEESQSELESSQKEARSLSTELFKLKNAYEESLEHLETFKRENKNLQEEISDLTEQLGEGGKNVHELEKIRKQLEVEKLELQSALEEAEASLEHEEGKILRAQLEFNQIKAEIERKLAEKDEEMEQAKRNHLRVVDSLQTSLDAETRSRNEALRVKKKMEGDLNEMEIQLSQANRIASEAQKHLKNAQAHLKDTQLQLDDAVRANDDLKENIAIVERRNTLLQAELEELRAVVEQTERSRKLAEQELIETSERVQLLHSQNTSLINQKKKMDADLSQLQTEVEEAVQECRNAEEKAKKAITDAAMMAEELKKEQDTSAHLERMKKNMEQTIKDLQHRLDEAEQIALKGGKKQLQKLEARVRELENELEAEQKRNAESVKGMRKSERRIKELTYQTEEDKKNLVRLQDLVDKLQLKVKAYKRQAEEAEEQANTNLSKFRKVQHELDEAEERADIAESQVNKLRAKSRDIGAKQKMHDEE
UniProt P16409, residues 2-200: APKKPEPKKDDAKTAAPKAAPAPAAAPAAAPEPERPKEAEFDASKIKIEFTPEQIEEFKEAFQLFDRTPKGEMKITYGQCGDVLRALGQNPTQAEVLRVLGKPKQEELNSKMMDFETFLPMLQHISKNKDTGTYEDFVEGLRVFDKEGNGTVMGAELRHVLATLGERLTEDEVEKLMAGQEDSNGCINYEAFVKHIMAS

Biological target: myosin heavy chain α, rat cardiac myofibrils (rat) (UniProt P02563)
Assay: reducing/non-reducing 1D SDS-PAGE western blot of NCA or AS treated rat cardiac myofibrils

binding: binds
Substance: myosin light chain 1, rat cardiac (from UniProt P16409 2-200)
